Assay results published in the supplement of paper PMC4604168 (melanoma cell lines).
The other results are listed elsewhere or left out. Repeats are few or missing, and single values can be far off.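 The apoptosis fraction was the count of cleaved-PARP antibody-stained nuclei relative to all DNA-stained nuclei, imaged in 1,536-well plates. Screening doses were set so most cells survived, and baseline and induced cleaved-PARP levels vary greatly across cell lines.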

Columns and labels:
Experiment in all cases: cleaved PARP positive nuclei fraction relative to DMSO control; melanoma cells; higher = more apoptosis
Conditions in all cases: library dose: low library concentration; 72 h
[1] = system: COLO792
[2] = system: COLO800
[3] = system: COLO829
[4] = system: G361
[5] = system: IPC-298
[6] = system: IST-MEL1
[7] = system: LB2518-MEL
[8] = system: LOXIMVI
[9] = system: MEL-HO

Structure (SMILES)	cleaved PARP positive nuclei fraction [1] [%]	cleaved PARP positive nuclei fraction [2] [%]	cleaved PARP positive nuclei fraction [3] [%]	cleaved PARP positive nuclei fraction [4] [%]	cleaved PARP positive nuclei fraction [5] [%]	cleaved PARP positive nuclei fraction [6] [%]	cleaved PARP positive nuclei fraction [7] [%]	cleaved PARP positive nuclei fraction [8] [%]	cleaved PARP positive nuclei fraction [9] [%]
Cn1cc(C2=C(c3cn(C4CCN(Cc5ccccn5)CC4)c4ccccc34)C(=O)NC2=O)c2ccccc21 [Enzastaurin] + OCCn1cc(-c2cnc3nnn(Cc4ccc5ncccc5c4)c3n2)cn1 [PF04217903] (first compound 0.8 µM, partner dose 1 µM)	55.4	91.2	119	57.6	45.7	100	52.5	65.1	65.6
C[C@]12O[C@H](C[C@]1(O)CO)n1c3ccccc3c3c4c(c5c6ccccc6n2c5c31)CNC4=O [Lestaurtinib] + c1cc(-c2cnn3cc(-c4ccc(OCCN5CCCCC5)cc4)cnc23)ccn1 [Dorsomorphin] (first compound 0.004 µM, partner dose 0.4 µM)	163	143	106	121	132	42.4	138	73.9	–
C=CCNC1=C2C[C@@H](C)C[C@H](OC)[C@H](O)[C@@H](C)/C=C(\C)[C@H](OC(N)=O)[C@@H](OC)/C=C\C=C(/C)C(=O)NC(=CC1=O)C2=O [Tanespimycin] + O=C(Oc1ccc([N+](=O)[O-])cc1)N1CCC(C(O)(c2ccc3c(c2)OCO3)c2ccc3c(c2)OCO3)CC1 [JZL184] (first compound 0.002 µM, partner dose 1 µM)	210	135	39.8	76.7	139	118	58.8	174	–
C[C@]12O[C@H](C[C@]1(O)CO)n1c3ccccc3c3c4c(c5c6ccccc6n2c5c31)CNC4=O [Lestaurtinib] + C=CCn1c(=O)c2cnc(Nc3ccc(N4CCN(C)CC4)cc3)nc2n1-c1cccc(C(C)(C)O)n1 [MK1775] (first compound 0.004 µM, partner dose 0.02 µM)	113	78.6	83.2	125	63.9	91.6	58.3	60.9	113
CCCCCCCCCCCCCCCCCCOP(=O)([O-])OC1CC[N+](C)(C)CC1 [Perifosine] + Cc1cc(SCc2sc(-c3ccc(C(F)(F)F)c(F)c3)nc2C)ccc1OCC(=O)O [GW0742] (first compound 0.4 µM, partner dose 2 µM)	89.5	66.7	158	72.4	60.9	236	134	55.7	–
C[C@]12O[C@H](C[C@]1(O)CO)n1c3ccccc3c3c4c(c5c6ccccc6n2c5c31)CNC4=O [Lestaurtinib] + COc1ccc(COc2ccc(Cc3cnc(N)nc3N)cc2OC)cc1 [GW2580] (first compound 0.004 µM, partner dose 1 µM)	134	111	30.4	158	46.2	42.6	74.3	94	–
O=c1[nH]nc(Sc2ncc([N+](=O)[O-])s2)n1-c1ccc2c(c1)OCCO2 + Cc1cc(SCc2sc(-c3ccc(C(F)(F)F)c(F)c3)nc2C)ccc1OCC(=O)O [GW0742] (first compound 0.2 µM, partner dose 2 µM)	102	65.4	35.1	66.3	135	62.1	50.4	34.2	–
N.N.[Cl][Pt][Cl] [cisplatin] + Cc1cc(SCc2sc(-c3ccc(C(F)(F)F)c(F)c3)nc2C)ccc1OCC(=O)O [GW0742] (first compound 1.6 µM, partner dose 2 µM)	128	48.1	82.2	138	64.4	99.3	116	60.9	–
C=CCNC1=C2C[C@@H](C)C[C@H](OC)[C@H](O)[C@@H](C)/C=C(\C)[C@H](OC(N)=O)[C@@H](OC)/C=C\C=C(/C)C(=O)NC(=CC1=O)C2=O [Tanespimycin] + C/C(O)=C(\C#N)C(=O)Nc1cc(Br)ccc1Br [LFM-A13] (first compound 0.002 µM, partner dose 2 µM)	67.7	133	63.5	102	88.4	19.4	45.6	40.8	–
C[C@]12O[C@H](C[C@]1(O)CO)n1c3ccccc3c3c4c(c5c6ccccc6n2c5c31)CNC4=O [Lestaurtinib] + COc1cc2ncnc(Nc3ccc(Oc4ccccc4)cc3)c2cc1OC [SrcI1] (first compound 0.004 µM, partner dose 2 µM)	87.8	39.8	88.9	185	265	71.7	90.4	159	–
CN1CCN(c2ccc3nc(-c4c(N)c5c(F)cccc5[nH]c4=O)[nH]c3c2)CC1 [Dovitinib] + C/C(O)=C(\C#N)C(=O)Nc1cc(Br)ccc1Br [LFM-A13] (first compound 0.1 µM, partner dose 2 µM)	138	102	153	93.5	184	188	147	61.2	–
N.N.[Cl][Pt][Cl] [cisplatin] + CC(C)(C)c1cnc(CSc2cnc(NC(=O)C3CCNCC3)s2)o1 [SNS-032] (first compound 1.6 µM, partner dose 0.01 µM)	128	94	95.5	72.4	179	31.8	58.6	130	33.9

A portion from the list above:
Structure (SMILES)	cleaved PARP positive nuclei fraction [1] [%]	cleaved PARP positive nuclei fraction [2] [%]	cleaved PARP positive nuclei fraction [3] [%]	cleaved PARP positive nuclei fraction [4] [%]	cleaved PARP positive nuclei fraction [5] [%]	cleaved PARP positive nuclei fraction [6] [%]	cleaved PARP positive nuclei fraction [7] [%]	cleaved PARP positive nuclei fraction [8] [%]	cleaved PARP positive nuclei fraction [9] [%]
O=c1[nH]nc(Sc2ncc([N+](=O)[O-])s2)n1-c1ccc2c(c1)OCCO2 + Cc1cc(SCc2sc(-c3ccc(C(F)(F)F)c(F)c3)nc2C)ccc1OCC(=O)O [GW0742] (first compound 0.2 µM, partner dose 2 µM)	102	65.4	35.1	66.3	135	62.1	50.4	34.2	–
N.N.[Cl][Pt][Cl] [cisplatin] + Cc1cc(SCc2sc(-c3ccc(C(F)(F)F)c(F)c3)nc2C)ccc1OCC(=O)O [GW0742] (first compound 1.6 µM, partner dose 2 µM)	128	48.1	82.2	138	64.4	99.3	116	60.9	–
